In PubChem BioAssay AID1508600 (Functional Genomics Laboratory (NCATS/FGL), 2020):
Hit rate of the full screen: of about 53,000 sequences, about 3,700 (7%) were called active.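 The calls were made as follows: active = gene knockdowns whose robust z-score for IL-1 alpha signal is at least 2 or at most -2, so actives lie on both sides; inactive = the rest.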 This is one part of the list.

experiment: Components of the Cytosolic LPS Sensing Pathway: Gene Identification via Genome-wide siRNA Screen; conditions: RAW264.7 macrophages, IL-1a HTRF, actives lie on both sides, screened at 100 nM (by protocol), cells primed 5 h with Pam3CSK4 first;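 also: robust z of the log signal after scaling to non-targeting control siRNA wells of the plate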
Summary of the method: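 RAW264.7; siRNA 100 nM final, RNAiMAX, 48h 37 degrees C; Pam3CSK4 5 h; LipidA + TransIT-TKO 24 h; IL-1a HTRF; CellTiter-Glo viability; robust z vs negative-control median.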

z-score, inactive:
GGAAUUUUACCUUUUGGAUTT against Tm9sf3 0.408, GGAAUAGGAGCAAGUGUACTT against 9930021J03Rik 1.03, GCGAAAAAGAUCGUCCUUGTT against Polr3a -0.444, GCGGUUGAUGCAUAUAAUUTT against Dnaaf4 0.504, GCCACAUUUUACAAUUUAGTT against Laptm4b 0.488, GGAACGGAACAUAAACCAGTT against Evpl 1.97, GGCUGUGACUUUUGAUCUATT against Prelid3b 0.46, GCCUACGUUACCUUGAUCCTT against Slc16a12 0.0774, CCUCUUAACAUCUCAAUACTT against Dio2 -0.831, GGCCUUUUUGUUUAUGCUATT against Zan -0.0784, GGGAUGGAAACCCUGGAUCTT against Col3a1 0.438, CCCAGAGGACAUUUAAGCUTT against Glb1 -1.03, GAGUUAAAGGUAAAAAUGGTT against Klra3 -0.749, GGAGGAGGGAAUCAGAGAATT against Zfp738 -0.0251, CCAUUGAGUCUUUCAUUACTT against Ube2g1 1.84, GCAUUGUGGAGGAUGUACATT against C230029F24Rik -0.933, CGAACCUGACUUUCACAGCTT against Il10rb 1.02, CCAUUGAACAGCAGAUUGGTT against Atp7a 0.81, GCCUUUUUUGGAAAAUACCTT against Sulf1 0.3, GCAUGUGUUACAUAGAAAUTT against Ss18l2 -0.274, GGCAAUCUAUGAGAAAUUCTT against Rgs18 0.463, GCAUAUACCACCAAUGAGATT against Gid4 0.0625, GGUGGUAGCUCCAGUAUCUTT against Sdcbp2 -1.91, CGAGAAAAUGGAGCUCUAATT against Csf3 0.462, GCUCUCACCUCCCUAUUGATT against Sult2b1 0.421, GGGACUCGAGUUUCAUCUATT against Casc1 0.768, GGAAAAUGGGAAGACAGAGTT against Dus3l 0.686, GGAUGGAAAGAAAAUCCUGTT against Pign -1.15, GGGCCAAGAUUAUAAGUAATT against Pld3 1.39, GGCCAUACACCUGUGACAUTT against Osr2 1.37, CCUCUACAUUCCAGCCAUGTT against Yif1b 0.162, GGUGAUCAACUUCCUGAAATT against Hdac11 -0.713, CCUUCUUGUGGGAGUGAAATT against Chodl -0.0597, GGAGAAACAAAACUUCUGGTT against Armc1 -0.566, CGCAUCAACAAAUUUACAATT against Kcnh7 0.446, CCUAUGUCCACCACAAAUGTT against Ifi209 -0.14, GGGAUAGCUCUUAUUAUUUTT against Man2b2 1.57, GCUGUACUUCUAGCUCGGATT against Il17rc -0.0801, GCUGUUUGCCUGGAAUUGGTT against Uqcr10 -0.396, GCCCAACUACCAUAGCCUATT against Lamtor1 0.273, GGACCUAAGUGUGAAAUACTT against Txndc11 0.542, GCAGCACUGGCUAUUGAGATT against Man1a2 0.385, CCGAAUCCUAUAUUUGACATT against Ptprj -0.42, GGAAAAAGCUGAGGUACCATT against Crebl2 -1.23, GGAGGAAAUCAGUGCAGAATT against Luc7l 0.843, GGGUAAACUGUGGAGAAAUTT against Fam214b -0.833, GGCCCUAUUUGGCUACGUUTT against Dgat2 -0.332, GGAUCUCUUCGACUAUAUCTT against Pim2 -0.22, CCCAGCUCACACAAACUCATT against Zfp560 -1.24, GGAGAUGGCUUAAAUAAAUTT against Cox6a1 -0.278, GCAUUCUCAAGUGAGGCGUTT against Atp5k -1.75, GCUGUACAUUCCGAUUAUCTT against Olfr1134 0.631, GCGCGUACAUCUUGUCUCATT against Tspan11 0.279, GGCCAUUACUCAAAUGUAUTT against Ppp2r2d -0.415, GCCGCACGUUUUUGAGUUGTT against Islr2 -0.554, GGCAAAAACUAUGAACUACTT against Ctsd 0.714, CCUCACAAGAGGCCUGUGUTT against Fstl1 -1.54, GGAGUGGUCAGCCAAACUUTT against Entpd3 -0.466, GGCUAUGCUUGAGGGAGUGTT against Oog4 -0.265, GGCCACACAGAAUAGCUCUTT against Taf6l 0.0293, GCCAGUUUCCGCAUCUACCTT against Hoxa7 1.37, GGAAAGCGGUAUGGCAUGGTT against LTO1 -0.238, GCAGAUACCAUGAUACAGUTT against Med20 -0.154, GGACUGAAUCAAGUAGAGUTT against Dkk2 1.42, GGUAAACCAAACAAAACCATT against Rpl35a 0.264, CCCAUGACCAAUGGGUGAATT against Plch1 -0.232, GGCAAAAAUGAGAAAGAGATT against Hebp2 -0.643, CCGAAUCUCUGUGUACUAUTT against Tubb5 -1.33, CCAAUAACUUCGCUUAUAUTT against Ms4a2 -0.389, GGUUGUUUAAACUCAGUUUTT against Slco4c1 0.699, GCUUUUUACAGGAUAUACATT against Zfp644 -0.143, GCUUGUAGAAACCUUUUUGTT against Tm4sf1 -0.591, GGGACUUGUCCAUCCUUUUTT against Qrfprl -1.71, GUUUUGUUUAUUCAGCCAGTT against Olfr1002 -0.825, GGUUGUUGAAAAGUCUUUATT against Rasa2 -0.102, CCACCAUUUAACUCGGCCUTT against Prkaa1 0.196, GGAGAAAAACUUCUUGGUATT against Cd96 1.16, ACAGGCAAGAUGAGAGCGATT against Cux1 0.124, GGUAGUGCUUCUCAUAUUATT against Olfr1437 -0.419, GGAAGAAUAUUGAGGAGAATT against Tnni2 0.362, GGACAAAACAUCUUAGAUGTT against Amacr 0.116, GGACGGUAAAGUGAAUCAUTT against Tas2r105 0.386, GGGCAGAGUGGAGUAUCUGTT against Cbx4 -1.35, GGUUAGAAGAAGAAACCCGTT against Prph -1.62, GCAGAAACGACUUCGAAACTT against Cdc20 0.405, GCUCCUCGCACUCUUUUGGTT against Olfr551 -0.567, GGUACAGGACCAAGAAUGGTT against Aknaos 0.927, CGGAUUGAUCCUAAUGUAUTT against Igf1r 1.09, GGAGAUUAUAGCUCAAGAUTT against Bfsp1 0.061, GCUUGUGGUUUUUCACAUCTT against Mrgprb3 -0.108, GGAAAUCCGUGCAGAAAUUTT against Man1a2 0.72, CGGCAAGGUUUGAAUUUAGTT against Reep3 -0.657, GGAGUUAGAAUUGAACCUUTT against Mr1 -1.49, GCAUCAUUCCUACCGAUGUTT against Ly6g5b -0.877, GCCGACAAGAGAUACAUGATT against Mettl6 1, GGAUUGCCUGCUCACUAACTT against Pced1b 0.196, GCUGGUCAUUACUAAUACATT against Rsbn1 1.5, CCUAAACUGUAGUUGUCUGTT against S100a14 0.209, CCUCUACUGUACUUAUACATT against Cpn2 -0.557, CCAAUGAGUUAAUCACCUUTT against Olfr1135 0.587, GAGAAAUACCAUUUCCUACTT against Olfr497 0.381

z-score, active:
GGCGGUGAUCCAGGGUUUATT against Klc2 2.62, GGACAGACUGAAUGAGCAGTT against Faf2 2.24, GGGCCUGGAUUACUUACACTT against Srpk1 4.83, GGCCCUUUGAGUCGUUCCUTT against Batf3 2.6, GGAAAUUUUUCGCAUGACCTT against Ddx39b -2.13, GGCUGUCUUGUCCAAAUGUTT against Olfr1357 -2.9
